{"source": "patent US6358736B1", "about": "“Method for increasing the antigen presenting ability of leukemia cells” (The United States of America as represented by the …, priority 1995, dated 2002)", "tested_on": "human peripheral blood monocytes", "assay": "FACS analysis of cell surface markers on cultured peripheral blood monocytes", "format": "cell-based", "settings": "added to calcium ionophore treatment", "note": "At least one structure is not confirmed: it was looked up by name or label, or the drawing left a doubt.", "data": [{"smiles": "COc1ccc2c(c[n+](C)c3c4cc5c(cc4ccc23)OCO5)c1OC", "note": "[chelerythrine chloride]", "values": [{"measurement": "effect of agent on ionophore-induced activated myeloid dendritic cell phenotype", "result": "little or no effect"}]}, {"smiles": "C=C[C@@]1(C)CC(=O)[C@]2(O)[C@@]3(C)[C@@H](O)CCC(C)(C)[C@@H]3[C@H](O)[C@H](OC(C)=O)[C@@]2(C)O1", "note": "[forskolin]", "values": [{"measurement": "effect of agent on ionophore-induced activated myeloid dendritic cell phenotype", "result": "inhibited at least some of the ionophore's effects"}]}]}
